For the series, the target named is POLQ ΔPol2 (amino acids 1-1000) (Homo sapiens) (UniProt O75417). The series can be described thus: activity assay. The note with it: ADP-Glo ATPase, 10 nM enzyme, 600 nM ssDNA, 100 uM ATP, room temperature; values in figure; 30-mer sequence from p104; purified recombinant protein; protein details: C-terminal Flag, SF9 baculovirus; single-stranded DNA.

Chains of the proteins cited; added tags and fusions are not shown. Residues count along the entry.
UniProt O75417, 1-1000, stated change not applied: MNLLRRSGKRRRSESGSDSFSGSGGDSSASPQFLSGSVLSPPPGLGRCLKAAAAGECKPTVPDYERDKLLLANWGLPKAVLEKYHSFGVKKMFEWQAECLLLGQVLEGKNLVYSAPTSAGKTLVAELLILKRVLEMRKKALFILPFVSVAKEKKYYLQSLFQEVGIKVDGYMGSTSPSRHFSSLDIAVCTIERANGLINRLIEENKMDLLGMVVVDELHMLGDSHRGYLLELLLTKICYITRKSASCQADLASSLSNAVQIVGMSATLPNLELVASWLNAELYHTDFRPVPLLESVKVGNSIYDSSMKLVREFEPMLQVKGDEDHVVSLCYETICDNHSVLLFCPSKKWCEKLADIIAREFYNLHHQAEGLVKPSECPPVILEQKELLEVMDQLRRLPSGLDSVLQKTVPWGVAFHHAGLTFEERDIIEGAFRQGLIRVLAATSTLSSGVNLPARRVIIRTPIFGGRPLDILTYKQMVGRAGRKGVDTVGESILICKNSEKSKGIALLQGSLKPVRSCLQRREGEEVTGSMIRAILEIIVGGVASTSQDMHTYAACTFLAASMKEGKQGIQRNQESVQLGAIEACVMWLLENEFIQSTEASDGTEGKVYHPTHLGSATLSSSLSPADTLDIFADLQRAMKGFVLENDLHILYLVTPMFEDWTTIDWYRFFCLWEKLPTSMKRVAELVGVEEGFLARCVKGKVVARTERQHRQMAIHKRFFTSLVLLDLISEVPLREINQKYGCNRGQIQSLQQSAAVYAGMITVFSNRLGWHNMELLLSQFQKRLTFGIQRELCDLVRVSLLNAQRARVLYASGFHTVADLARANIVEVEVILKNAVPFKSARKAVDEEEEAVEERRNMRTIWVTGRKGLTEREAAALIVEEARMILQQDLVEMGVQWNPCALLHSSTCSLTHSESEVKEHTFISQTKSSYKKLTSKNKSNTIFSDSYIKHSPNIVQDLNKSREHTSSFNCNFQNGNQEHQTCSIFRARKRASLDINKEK

With “GTTAGCAGGTACCGAGCAACAATTCACTGG [30-mer ssDNA substrate]”, the “activity on this sequence” value is reported as “active”.
